# Results from PubChem BioAssay AID587 (National Center for Advancing Translational Sciences (NCATS), 2007).
# About 35 (0.06%) of roughly 59,000 compounds were called active. The inconclusive results got no clear call from the source; some entries with a clear call stand among them for comparison. Rule as the data show it: active = max dye-equivalent concentration above about 10 nM; inconclusive = between about 1.1 nM and that limit; inactive = weaker than that.
# Assay: qHTS Assay for Spectroscopic Profiling in Texas Red Spectral Region
# Conditions: Compound fluorescence, Texas Red channel, 547/618 nm; active compounds read high
# Outline: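 Dye-equivalent concentrations come from scaling compound signal (ex 547, em 618 nm) to six Texas Red standard concentrations run on every plate, after 15 min room-temperature incubation in pH 8.0 Tris (100 mM).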
row,SMILES,max dye-equivalent concentration
1,Cc1ccccc1OCC1CN(CN2CCOCC2)C(=O)O1 (configuration not stated),inconclusive: 1.5 nM
2,Clc1ccc2[nH]c3c(NCC4CCCO4)ncnc3c2c1 (configuration not stated),inconclusive: 1.1 nM
3,CCCc1cc(=O)[nH]c(SCC(=O)c2c(N)n(C)c(=O)n(C)c2=O)n1,inconclusive: 1.2 nM
4,Cc1nn(C)c(C)c1NC(=O)c1ccnn1C,inconclusive: 1.3 nM
5,CC(C)CC(=O)Nc1nnn(C)n1,inconclusive: 1.4 nM
6,CNc1nc(-c2cccnc2)nc2ccccc12,inactive
7,CCNc1ncc2nc(C)c(=O)n(CCc3ccccc3)c2n1,inconclusive: 1.1 nM
8,O=C(c1cccc(F)c1)N1CCN(c2cccc(Cl)c2)CC1,inconclusive: 2.3 nM
9,COC(=O)NCC(C)OC(=O)Nc1cccc(Cl)c1 (configuration not stated),inconclusive: 1.4 nM
10,Cc1cc(C)n2nc(C(=O)NCc3ccco3)nc2n1,inconclusive: 1.7 nM
11,CCC(=O)Nc1cc(C)c(NC(=O)CCc2ccccc2)cn1,inconclusive: 1.3 nM
12,Cc1ccc(-c2ccc(SCC(=O)Nc3nonc3C)nn2)cc1,inconclusive: 2.2 nM
13,COc1ccc(N2C(=O)C(Cl)=C(N3CCN(Cc4ccccc4)CC3)C2=O)cc1,inconclusive: 1.2 nM
14,O=C(COc1ccc(OCc2ccccc2)cc1)NC1CCOC1=O (configuration not stated),inconclusive: 1.7 nM
15,Cc1ccc(C[C@H](Cc2nc3ccccc3[nH]2)c2nc3ccccc3[nH]2)cc1,inactive
16,CC(=O)OCc1cc2cccc(C)c2[nH]c1=O,inconclusive: 1.2 nM
17,CCC(CC)C(=O)Nc1cccc(-c2nc3ccccc3o2)c1,inconclusive: 1.5 nM
18,CN(c1ccc(C(=O)Nc2ccccc2C(=O)N2CCCC2)cc1)S(C)(=O)=O,inconclusive: 1.6 nM
19,CCOC(=O)c1c(NC(=O)CSc2n[nH]c(N)n2)sc(CC)c1C,inconclusive: 1.5 nM

# A second format for 15 compounds above:
row	SMILES	max dye-equivalent concentration
4	Cc1nn(C)c(C)c1NC(=O)c1ccnn1C	inconclusive: 1.3 nM
5	CC(C)CC(=O)Nc1nnn(C)n1	inconclusive: 1.4 nM
6	CNc1nc(-c2cccnc2)nc2ccccc12	inactive
7	CCNc1ncc2nc(C)c(=O)n(CCc3ccccc3)c2n1	inconclusive: 1.1 nM
8	O=C(c1cccc(F)c1)N1CCN(c2cccc(Cl)c2)CC1	inconclusive: 2.3 nM
9	COC(=O)NCC(C)OC(=O)Nc1cccc(Cl)c1 (configuration not stated)	inconclusive: 1.4 nM
10	Cc1cc(C)n2nc(C(=O)NCc3ccco3)nc2n1	inconclusive: 1.7 nM
11	CCC(=O)Nc1cc(C)c(NC(=O)CCc2ccccc2)cn1	inconclusive: 1.3 nM
12	Cc1ccc(-c2ccc(SCC(=O)Nc3nonc3C)nn2)cc1	inconclusive: 2.2 nM
13	COc1ccc(N2C(=O)C(Cl)=C(N3CCN(Cc4ccccc4)CC3)C2=O)cc1	inconclusive: 1.2 nM
14	O=C(COc1ccc(OCc2ccccc2)cc1)NC1CCOC1=O (configuration not stated)	inconclusive: 1.7 nM
15	Cc1ccc(C[C@H](Cc2nc3ccccc3[nH]2)c2nc3ccccc3[nH]2)cc1	inactive
16	CC(=O)OCc1cc2cccc(C)c2[nH]c1=O	inconclusive: 1.2 nM
17	CCC(CC)C(=O)Nc1cccc(-c2nc3ccccc3o2)c1	inconclusive: 1.5 nM
18	CN(c1ccc(C(=O)Nc2ccccc2C(=O)N2CCCC2)cc1)S(C)(=O)=O	inconclusive: 1.6 nM

# The results go on:

row,SMILES,max dye-equivalent concentration
1,O=C(CSc1nc2ccccc2s1)c1sc2sc3ccccc3[n+]2c1O,inconclusive: 9.6 nM
2,CCNC(=O)CSc1nc2ccccc2c(=O)n1CCCOC(C)C,inconclusive: 1.1 nM
3,CCOC(=O)CC(N)c1ccc(OC)cc1 (configuration not stated),inconclusive: 1.2 nM
4,Cc1ccc(C(=O)Cn2c(NCCO)nc3ccccc32)cc1,inconclusive: 1.6 nM
5,CN(C)CCCNC(=O)c1ccc2[nH]c3ccccc3c2c1,inconclusive: 1.6 nM
6,CN=C(Nc1cc(C)nn1-c1ccccc1)c1ccc(F)cc1,inconclusive: 1.4 nM
7,c1ccc2c(Nc3ccncc3)nc(-c3ccc4c(c3)OCO4)nc2c1,inactive
8,Cc1ccc(C2CC(=O)c3cnc(NC(=O)c4ccco4)nc3C2)cc1 (configuration not stated),inconclusive: 1.4 nM
9,CC(C)[C@H](NC(=O)NC1CCCC1)C(=O)O,inconclusive: 1.3 nM
10,CC1=C(C(=O)O)N2C(=O)[C@@H](NC(=O)[C@@H](N)C3=CCC=CC3)[C@@H]2SC1,inactive
11,NC(=O)N1c2ccccc2CC(=O)c2ccccc21,inactive
12,CC(C)C(c1nnnn1Cc1cccs1)N1CCN(C2CCCC2)CC1 (configuration not stated),inconclusive: 1.6 nM
13,Cc1cc(C)c(NC(=O)CS(=O)CC(=O)N2CCN(c3ccc(F)cc3)CC2)c(C)c1 (configuration not stated),inconclusive: 2.1 nM
14,O=c1c(CCc2ccccc2)nc2cnc(N3CCNCC3)nc2n1Cc1ccc(F)cc1,inactive
15,CC(C)c1ccccc1S(=O)c1ccccc1C(C)(C)O (configuration not stated),inconclusive: 1.3 nM
16,COC(=O)[C@@H]1[C@H]2C[C@H]3c4[nH]c5cc(OC)ccc5c4CCN3C[C@@H]2C[C@@H](OC(=O)c2cc(OC)c(OC)c(OC)c2)[C@@H]1OC,inactive
17,COc1cc(NC(=O)CCN2CCN(c3ccccc3F)CC2)cc(OC)c1,inconclusive: 1.8 nM
18,O=C(CN1C(=O)CSC1=O)N1CCc2ccccc2C1,inconclusive: 1.1 nM
19,COc1ccc(Oc2ncc3nc(C)c(=O)n(Cc4ccc(F)cc4)c3n2)cc1,inactive

row,SMILES,max dye-equivalent concentration
1,C=CCOc1cccc(C2/C(=C(/O)c3ccc(F)cc3)C(=O)C(=O)N2CCN2CCOCC2)c1 (configuration not stated),inconclusive: 1.1 nM
2,CCOC(=O)CCCNC(=O)COC(=O)c1cc(C)cc(C)c1,inconclusive: 1.2 nM
3,NC(CSC12CC3CC(CC(C3)C1)C2)C(=O)O (configuration not stated),inconclusive: 1.2 nM
4,CCn1c2ccccc2c2nc3cc(OC)c(OC)cc3nc21,inconclusive: 2.8 nM
5,COC(=O)c1cccc(NC(=O)c2cccc(OC)c2)c1,inconclusive: 1.1 nM
6,CN1C(=O)c2oc3ccccc3c(=O)c2C1c1ccccn1 (configuration not stated),inconclusive: 1.1 nM
7,CN(C)C(=O)c1ccc(-c2cc(NCc3ccccc3)ncn2)cc1,inactive
8,CC1(c2ccc3noc(-c4ccccc4)c3c2)OCCO1,inconclusive: 1.2 nM
9,CCn1c(CNC(=O)c2ccc(OC)c(OC)c2)nnc1SCC(=O)c1ccc(OC)cc1,inconclusive: 2.1 nM
10,COCCn1c(C)cc(C(=O)CN2C(=O)NC3(CCCCCCC3)C2=O)c1C,inconclusive: 1.8 nM
11,COc1ccc(-c2cc(C(=O)OCC(=O)N(C)C)c3ccccc3n2)cc1,inconclusive: 1.8 nM
12,O=C(NCSC1=NCCS1)c1ccccc1,inconclusive: 1.5 nM
13,COc1ccccc1CNc1ncnc2ccc(-c3ccccc3OC)cc12,inactive
14,Cc1ccc(Cl)cc1NC(=O)COC(=O)C1CCCC1,inconclusive: 1.3 nM
15,CCCS(=O)(=O)N1CCCC(C(=O)NCCc2ccc(OC)c(OC)c2)C1 (configuration not stated),inconclusive: 1.2 nM
16,CCOc1cc(C2C(C(=O)c3ccco3)=C(O)C(=O)N2CCc2ccccc2)ccc1O (configuration not stated),inconclusive: 1.5 nM
17,COc1ccc(-c2nnc(SCC(=O)NC(=O)NCc3ccco3)o2)cc1,inconclusive: 1.3 nM
18,CC(C)CCn1nnnc1C(c1ccccc1)N1CCC(C(N)=O)CC1 (configuration not stated),inconclusive: 1.3 nM
19,COc1ccc2c(c1)C=CC1(O2)N(CCO)c2ccccc2C1(C)C (configuration not stated),inconclusive: 1.6 nM

# An excerpt of these results, with tabs:
row	SMILES	max dye-equivalent concentration
1	C=CCOc1cccc(C2/C(=C(/O)c3ccc(F)cc3)C(=O)C(=O)N2CCN2CCOCC2)c1 (configuration not stated)	inconclusive: 1.1 nM
19	COc1ccc2c(c1)C=CC1(O2)N(CCO)c2ccccc2C1(C)C (configuration not stated)	inconclusive: 1.6 nM
